Earlier results, collected in patent US10457891B2, “Organic compounds” (Givaudan, S.A., priority 2013, dated 2019).
At least one compound was matched to its structure with a doubt left.

Test system: glucose synthesis and fatty acid synthesis
Details: in vitro; cited from earlier work

In the case of `CC(C)(C)c1ccc(C(=O)O)cc1` [tert-butyl benzoic acid], the “Inhibition of glucose synthesis and fatty acid synthesis” value is listed as “inhibit glucose synthesis and fatty acid synthesis”.
